Experimental data: publication doi:10.1101/2021.07.16.452612
Read-outs that look alike come from different tables or passages of the source. These are yes or no findings as the source states them, for the method shown. Some binding calls cover weakened binding; strength is not graded here. For some assays here: Sequences can lack the tags named with a protein.

The chains behind the UniProt entries cited, without tags or fusion partners.
UniProt P26039: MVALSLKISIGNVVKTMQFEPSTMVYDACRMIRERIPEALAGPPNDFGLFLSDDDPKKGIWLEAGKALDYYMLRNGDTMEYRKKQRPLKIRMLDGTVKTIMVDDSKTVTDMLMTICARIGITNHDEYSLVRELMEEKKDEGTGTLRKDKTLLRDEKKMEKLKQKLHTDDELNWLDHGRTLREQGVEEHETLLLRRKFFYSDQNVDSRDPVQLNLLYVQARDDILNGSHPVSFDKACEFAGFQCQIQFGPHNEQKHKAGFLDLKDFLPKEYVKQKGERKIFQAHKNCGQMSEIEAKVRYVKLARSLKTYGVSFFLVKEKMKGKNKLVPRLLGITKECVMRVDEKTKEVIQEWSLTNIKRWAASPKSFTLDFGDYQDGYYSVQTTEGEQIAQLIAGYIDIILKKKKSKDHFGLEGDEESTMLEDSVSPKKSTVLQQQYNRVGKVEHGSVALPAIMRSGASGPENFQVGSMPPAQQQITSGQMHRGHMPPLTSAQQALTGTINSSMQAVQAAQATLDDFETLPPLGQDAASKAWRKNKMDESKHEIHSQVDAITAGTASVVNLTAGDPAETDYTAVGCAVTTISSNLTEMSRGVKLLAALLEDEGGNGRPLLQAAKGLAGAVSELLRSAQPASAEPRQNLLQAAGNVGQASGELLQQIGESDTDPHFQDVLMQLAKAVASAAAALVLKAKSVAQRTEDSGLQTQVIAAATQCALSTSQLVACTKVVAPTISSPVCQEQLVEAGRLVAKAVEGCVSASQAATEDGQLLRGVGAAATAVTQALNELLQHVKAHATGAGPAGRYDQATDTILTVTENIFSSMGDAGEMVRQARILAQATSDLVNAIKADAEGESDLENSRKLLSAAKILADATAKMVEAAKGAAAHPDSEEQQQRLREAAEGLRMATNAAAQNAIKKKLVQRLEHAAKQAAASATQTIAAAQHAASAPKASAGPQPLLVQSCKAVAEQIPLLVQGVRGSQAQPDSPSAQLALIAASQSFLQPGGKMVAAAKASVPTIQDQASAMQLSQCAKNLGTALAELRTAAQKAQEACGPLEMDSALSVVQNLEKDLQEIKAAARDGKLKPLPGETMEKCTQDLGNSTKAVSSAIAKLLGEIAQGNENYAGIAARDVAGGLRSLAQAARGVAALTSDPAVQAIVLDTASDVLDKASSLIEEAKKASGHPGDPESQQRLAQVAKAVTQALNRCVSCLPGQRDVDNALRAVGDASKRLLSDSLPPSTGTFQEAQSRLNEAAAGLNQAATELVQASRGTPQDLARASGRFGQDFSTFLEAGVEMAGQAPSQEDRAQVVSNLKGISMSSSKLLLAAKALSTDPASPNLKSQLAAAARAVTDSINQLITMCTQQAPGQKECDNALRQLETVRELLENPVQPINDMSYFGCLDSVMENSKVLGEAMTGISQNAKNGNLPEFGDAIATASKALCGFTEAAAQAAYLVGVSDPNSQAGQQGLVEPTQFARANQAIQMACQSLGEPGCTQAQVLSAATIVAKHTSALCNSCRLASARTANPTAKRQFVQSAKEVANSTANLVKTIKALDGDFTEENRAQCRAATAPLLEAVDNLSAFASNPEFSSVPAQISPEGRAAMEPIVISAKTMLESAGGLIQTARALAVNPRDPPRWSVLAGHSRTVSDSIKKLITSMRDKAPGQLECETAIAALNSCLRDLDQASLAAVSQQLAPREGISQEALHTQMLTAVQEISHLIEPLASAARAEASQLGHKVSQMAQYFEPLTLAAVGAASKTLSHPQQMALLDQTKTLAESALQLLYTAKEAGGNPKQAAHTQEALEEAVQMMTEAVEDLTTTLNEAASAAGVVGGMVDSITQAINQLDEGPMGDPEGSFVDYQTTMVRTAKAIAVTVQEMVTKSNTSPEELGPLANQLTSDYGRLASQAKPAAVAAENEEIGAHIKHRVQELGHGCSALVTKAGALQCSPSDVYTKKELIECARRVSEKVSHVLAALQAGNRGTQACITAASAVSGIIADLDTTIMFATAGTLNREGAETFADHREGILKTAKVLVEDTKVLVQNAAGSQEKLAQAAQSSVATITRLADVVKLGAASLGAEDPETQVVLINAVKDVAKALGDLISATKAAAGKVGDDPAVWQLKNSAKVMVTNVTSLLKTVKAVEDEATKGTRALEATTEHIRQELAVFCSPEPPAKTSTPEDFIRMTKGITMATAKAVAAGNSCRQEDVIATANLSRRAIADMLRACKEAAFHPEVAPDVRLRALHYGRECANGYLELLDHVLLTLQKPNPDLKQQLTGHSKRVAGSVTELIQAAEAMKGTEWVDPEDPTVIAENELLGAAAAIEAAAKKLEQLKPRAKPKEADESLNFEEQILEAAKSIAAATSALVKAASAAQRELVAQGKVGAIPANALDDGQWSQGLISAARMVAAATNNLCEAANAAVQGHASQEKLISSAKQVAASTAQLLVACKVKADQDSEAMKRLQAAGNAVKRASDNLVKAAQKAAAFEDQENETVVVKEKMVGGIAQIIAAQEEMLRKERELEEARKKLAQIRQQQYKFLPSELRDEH
UniProt Q8VI36: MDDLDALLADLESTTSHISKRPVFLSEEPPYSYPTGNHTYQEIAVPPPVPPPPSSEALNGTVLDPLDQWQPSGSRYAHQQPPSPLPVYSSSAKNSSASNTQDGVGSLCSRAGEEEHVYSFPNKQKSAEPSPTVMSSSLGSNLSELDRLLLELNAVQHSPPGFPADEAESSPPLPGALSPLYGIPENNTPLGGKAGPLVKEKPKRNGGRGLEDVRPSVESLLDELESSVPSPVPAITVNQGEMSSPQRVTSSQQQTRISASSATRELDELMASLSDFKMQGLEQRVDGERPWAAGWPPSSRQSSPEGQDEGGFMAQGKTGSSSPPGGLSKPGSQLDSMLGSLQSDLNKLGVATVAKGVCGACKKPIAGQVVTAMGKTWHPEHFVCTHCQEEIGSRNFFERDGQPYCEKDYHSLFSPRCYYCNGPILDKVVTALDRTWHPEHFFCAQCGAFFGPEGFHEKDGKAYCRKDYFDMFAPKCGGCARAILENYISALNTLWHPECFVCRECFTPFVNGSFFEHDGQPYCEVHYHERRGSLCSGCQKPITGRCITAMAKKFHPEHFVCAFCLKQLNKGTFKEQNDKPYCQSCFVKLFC
UniProt Q9Y4G6: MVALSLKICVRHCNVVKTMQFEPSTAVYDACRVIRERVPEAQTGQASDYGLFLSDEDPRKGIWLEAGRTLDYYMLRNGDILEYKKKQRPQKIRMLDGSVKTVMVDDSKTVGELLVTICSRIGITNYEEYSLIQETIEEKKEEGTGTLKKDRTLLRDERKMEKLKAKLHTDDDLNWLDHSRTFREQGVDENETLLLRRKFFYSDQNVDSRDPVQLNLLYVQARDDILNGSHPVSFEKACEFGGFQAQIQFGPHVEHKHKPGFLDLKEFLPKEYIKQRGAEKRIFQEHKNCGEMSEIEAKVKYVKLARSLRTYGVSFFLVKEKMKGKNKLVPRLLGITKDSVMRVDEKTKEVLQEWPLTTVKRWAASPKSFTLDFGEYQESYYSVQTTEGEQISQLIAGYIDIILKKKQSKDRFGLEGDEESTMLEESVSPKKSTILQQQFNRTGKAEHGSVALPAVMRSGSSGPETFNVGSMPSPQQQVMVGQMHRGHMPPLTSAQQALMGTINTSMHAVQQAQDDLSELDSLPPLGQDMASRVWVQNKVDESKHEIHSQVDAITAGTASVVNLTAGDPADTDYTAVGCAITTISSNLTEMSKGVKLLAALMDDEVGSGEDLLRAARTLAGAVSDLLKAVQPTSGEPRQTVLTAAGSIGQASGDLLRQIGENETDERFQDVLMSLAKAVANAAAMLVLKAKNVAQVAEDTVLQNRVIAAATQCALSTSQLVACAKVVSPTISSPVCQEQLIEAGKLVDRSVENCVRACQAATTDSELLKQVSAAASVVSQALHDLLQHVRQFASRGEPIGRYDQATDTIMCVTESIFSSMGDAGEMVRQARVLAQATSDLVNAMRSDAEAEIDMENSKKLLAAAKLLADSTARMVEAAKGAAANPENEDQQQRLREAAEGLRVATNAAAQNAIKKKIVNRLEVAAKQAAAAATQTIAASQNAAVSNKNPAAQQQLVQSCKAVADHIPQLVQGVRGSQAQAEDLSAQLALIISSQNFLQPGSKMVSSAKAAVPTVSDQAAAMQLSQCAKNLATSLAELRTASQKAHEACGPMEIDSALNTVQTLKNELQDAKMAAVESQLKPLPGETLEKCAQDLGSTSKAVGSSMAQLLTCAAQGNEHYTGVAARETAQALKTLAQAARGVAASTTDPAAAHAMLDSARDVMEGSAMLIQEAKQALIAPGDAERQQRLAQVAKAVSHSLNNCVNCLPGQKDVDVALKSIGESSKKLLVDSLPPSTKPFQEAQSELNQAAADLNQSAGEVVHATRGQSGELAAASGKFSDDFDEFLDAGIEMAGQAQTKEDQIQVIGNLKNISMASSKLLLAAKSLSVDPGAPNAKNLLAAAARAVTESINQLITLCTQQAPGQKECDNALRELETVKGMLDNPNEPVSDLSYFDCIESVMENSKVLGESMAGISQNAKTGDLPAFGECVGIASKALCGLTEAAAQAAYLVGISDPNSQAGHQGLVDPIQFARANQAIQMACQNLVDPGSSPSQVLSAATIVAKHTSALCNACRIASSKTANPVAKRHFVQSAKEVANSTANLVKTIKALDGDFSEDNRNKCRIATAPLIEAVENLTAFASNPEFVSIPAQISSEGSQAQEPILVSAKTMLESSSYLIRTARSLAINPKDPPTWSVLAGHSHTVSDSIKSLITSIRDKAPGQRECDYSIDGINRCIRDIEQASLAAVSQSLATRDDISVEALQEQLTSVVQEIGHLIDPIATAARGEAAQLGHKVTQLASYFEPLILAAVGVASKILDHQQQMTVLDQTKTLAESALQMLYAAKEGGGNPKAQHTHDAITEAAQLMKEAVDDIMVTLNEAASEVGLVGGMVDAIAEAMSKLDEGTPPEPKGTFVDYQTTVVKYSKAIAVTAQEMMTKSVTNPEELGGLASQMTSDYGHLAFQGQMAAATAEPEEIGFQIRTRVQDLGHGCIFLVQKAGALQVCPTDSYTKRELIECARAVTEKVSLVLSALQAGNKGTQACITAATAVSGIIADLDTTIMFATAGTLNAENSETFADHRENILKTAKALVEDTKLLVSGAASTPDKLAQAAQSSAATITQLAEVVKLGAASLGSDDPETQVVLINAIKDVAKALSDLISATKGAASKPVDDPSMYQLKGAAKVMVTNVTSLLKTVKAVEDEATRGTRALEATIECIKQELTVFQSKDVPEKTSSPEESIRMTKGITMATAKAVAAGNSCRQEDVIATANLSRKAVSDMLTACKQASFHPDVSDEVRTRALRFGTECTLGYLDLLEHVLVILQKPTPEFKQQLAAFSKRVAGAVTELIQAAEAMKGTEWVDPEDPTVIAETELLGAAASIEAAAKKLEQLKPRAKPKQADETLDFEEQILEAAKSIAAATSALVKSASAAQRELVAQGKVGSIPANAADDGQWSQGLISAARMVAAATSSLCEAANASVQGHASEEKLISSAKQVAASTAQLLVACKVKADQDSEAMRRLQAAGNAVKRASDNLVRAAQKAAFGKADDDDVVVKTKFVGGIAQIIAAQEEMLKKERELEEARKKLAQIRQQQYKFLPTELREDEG
UniProt Q13418: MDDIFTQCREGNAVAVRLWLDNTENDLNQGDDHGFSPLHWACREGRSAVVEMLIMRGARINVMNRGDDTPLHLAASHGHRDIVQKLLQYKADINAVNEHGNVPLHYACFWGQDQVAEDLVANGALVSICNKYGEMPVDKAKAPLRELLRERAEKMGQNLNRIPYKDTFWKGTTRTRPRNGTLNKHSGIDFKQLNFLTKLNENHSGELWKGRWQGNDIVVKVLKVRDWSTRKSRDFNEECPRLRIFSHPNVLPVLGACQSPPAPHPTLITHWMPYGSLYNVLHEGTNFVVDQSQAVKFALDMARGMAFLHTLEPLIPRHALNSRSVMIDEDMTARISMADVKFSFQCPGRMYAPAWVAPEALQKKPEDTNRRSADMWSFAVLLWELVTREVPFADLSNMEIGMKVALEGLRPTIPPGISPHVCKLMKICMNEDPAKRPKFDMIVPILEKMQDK

T1: mCh-tensin3-FL-cBAK (human) (UniProt Q68CZ2)
T1 sequence: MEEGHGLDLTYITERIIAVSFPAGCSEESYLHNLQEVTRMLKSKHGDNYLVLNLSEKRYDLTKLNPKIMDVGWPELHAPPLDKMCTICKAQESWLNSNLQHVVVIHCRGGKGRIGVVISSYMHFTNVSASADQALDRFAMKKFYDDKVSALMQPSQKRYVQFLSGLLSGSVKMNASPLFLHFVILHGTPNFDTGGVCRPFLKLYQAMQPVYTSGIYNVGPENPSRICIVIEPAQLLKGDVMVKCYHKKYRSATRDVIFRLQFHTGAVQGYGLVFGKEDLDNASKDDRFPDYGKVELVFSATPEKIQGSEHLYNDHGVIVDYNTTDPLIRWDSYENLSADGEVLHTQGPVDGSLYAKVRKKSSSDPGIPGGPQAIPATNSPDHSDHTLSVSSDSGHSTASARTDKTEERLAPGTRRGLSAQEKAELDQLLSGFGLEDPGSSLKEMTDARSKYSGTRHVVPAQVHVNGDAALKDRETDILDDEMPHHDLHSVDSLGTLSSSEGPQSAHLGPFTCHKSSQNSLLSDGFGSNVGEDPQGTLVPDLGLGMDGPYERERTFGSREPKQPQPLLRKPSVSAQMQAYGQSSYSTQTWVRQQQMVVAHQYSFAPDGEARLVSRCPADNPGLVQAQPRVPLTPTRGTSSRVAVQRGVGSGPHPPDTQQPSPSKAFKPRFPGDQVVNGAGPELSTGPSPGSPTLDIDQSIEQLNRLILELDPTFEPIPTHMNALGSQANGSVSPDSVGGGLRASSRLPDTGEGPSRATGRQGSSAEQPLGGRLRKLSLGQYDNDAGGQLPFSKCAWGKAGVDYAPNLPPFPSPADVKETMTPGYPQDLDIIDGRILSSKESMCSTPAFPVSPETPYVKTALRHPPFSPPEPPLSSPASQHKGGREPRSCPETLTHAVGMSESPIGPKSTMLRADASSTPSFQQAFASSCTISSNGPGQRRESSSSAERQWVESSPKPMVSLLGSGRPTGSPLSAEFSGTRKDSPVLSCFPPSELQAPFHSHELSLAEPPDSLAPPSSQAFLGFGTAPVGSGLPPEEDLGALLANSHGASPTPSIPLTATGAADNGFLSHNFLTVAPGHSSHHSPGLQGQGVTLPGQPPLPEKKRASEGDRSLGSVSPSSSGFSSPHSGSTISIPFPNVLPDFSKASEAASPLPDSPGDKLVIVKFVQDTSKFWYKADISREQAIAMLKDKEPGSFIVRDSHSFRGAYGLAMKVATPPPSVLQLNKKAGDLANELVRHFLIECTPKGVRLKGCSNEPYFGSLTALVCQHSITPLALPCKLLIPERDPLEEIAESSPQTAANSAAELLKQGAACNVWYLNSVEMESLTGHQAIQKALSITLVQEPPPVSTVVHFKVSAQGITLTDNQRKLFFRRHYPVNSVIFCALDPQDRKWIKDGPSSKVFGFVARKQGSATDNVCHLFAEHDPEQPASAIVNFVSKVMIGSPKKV

T2: mCh-tensin2-cBAK (human) (UniProt Q63HR2)
T2 sequence: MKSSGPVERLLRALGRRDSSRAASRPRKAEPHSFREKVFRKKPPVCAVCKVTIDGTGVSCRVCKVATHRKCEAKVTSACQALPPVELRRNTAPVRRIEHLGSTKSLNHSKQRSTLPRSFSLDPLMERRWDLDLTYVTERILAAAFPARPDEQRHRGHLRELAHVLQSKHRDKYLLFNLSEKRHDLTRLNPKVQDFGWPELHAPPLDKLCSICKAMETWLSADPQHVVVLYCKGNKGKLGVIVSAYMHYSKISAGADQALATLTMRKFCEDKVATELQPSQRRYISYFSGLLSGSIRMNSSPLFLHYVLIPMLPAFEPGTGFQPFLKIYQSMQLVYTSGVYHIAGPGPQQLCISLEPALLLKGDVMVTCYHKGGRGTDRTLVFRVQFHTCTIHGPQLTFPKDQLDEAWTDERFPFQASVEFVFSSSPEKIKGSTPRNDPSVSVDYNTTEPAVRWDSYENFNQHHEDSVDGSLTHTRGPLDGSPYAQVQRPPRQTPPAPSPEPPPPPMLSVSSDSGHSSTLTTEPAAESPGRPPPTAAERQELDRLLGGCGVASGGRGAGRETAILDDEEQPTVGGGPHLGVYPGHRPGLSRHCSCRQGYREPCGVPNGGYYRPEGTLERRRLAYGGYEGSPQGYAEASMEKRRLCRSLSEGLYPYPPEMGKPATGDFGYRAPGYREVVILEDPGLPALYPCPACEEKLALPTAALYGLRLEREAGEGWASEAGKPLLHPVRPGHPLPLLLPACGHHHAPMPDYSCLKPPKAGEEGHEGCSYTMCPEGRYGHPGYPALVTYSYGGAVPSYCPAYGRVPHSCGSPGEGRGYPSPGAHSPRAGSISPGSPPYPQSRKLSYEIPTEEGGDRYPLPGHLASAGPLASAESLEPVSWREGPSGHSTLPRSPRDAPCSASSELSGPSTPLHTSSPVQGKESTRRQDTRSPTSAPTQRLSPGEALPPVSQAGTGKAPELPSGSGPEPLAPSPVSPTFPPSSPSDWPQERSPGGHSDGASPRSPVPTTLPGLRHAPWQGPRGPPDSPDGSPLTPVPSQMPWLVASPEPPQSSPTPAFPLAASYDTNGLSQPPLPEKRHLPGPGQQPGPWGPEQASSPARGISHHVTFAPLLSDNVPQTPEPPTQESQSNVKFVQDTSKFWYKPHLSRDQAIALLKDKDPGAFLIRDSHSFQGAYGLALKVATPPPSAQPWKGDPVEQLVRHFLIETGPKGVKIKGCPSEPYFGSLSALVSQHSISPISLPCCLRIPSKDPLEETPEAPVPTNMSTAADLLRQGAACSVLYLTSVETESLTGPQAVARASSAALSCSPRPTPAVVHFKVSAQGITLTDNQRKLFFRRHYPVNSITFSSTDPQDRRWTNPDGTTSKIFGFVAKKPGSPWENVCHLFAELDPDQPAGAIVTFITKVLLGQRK


Experiments:
Test in all cases: mitochondrial targeting and recruitment assay
[1] = biological target: T1, mCh-tensin3-FL-cBAK (human)
[2] = biological target: T2, mCh-tensin2-cBAK (human)
[3] = biological target: T1, mCh-tensin3-FL-cBAK (human); remark: listed apart in the source
[4] = biological target: mCh-talinFL-cBAK (UniProt P26039)

binding [1]	binding [2]	binding [3]	binding [4]	Molecule
binds	binds			GFP-paxillin (from UniProt P49023 1-591)
binds				endogenous paxillin (from UniProt Q8VI36 1-591)
binds	no binding			GFP-talin2 (from UniProt Q9Y4G6 1-2542)
no binding				active β1 integrin (9EG7 staining), endogenous (from UniProt P09055 21-798) (receptor)
binds	no binding			GFP-talin1 (from UniProt P26039 1-2541)
binds		binds		endogenous talin1 (from UniProt P26039 1-2541)
binds	no binding			GFP-FAK (from UniProt Q05397 1-1052)
binds	binds			GFP-ILK (from UniProt Q13418 1-452)
binds	no binding			GFP-KANK2 (protein, UniProt Q63ZY3 1-851) MAQVLHVPAPFPGTPGPASPPAFPAKDPDPPYSVETPYGYRLDLDFLKYVDDIEKGHTLRRVAVQRRPRLSSLPRGPGSWWTSTESLCSNASGDSRHSAYSYCGRGFYPQYGALETRGGFNPRVERTLLDARRRLEDQAATPTGLGSLTPSAAGSTASLVGVGLPPPTPRSSGLSTPVPPSAGHLAHVREQMAGALRKLRQLEEQVKLIPVLQVKLSVLQEEKRQLTVQLKSQKFLGHPTAGRGRSELCLDLPDPPEDPVALETRSVGTWVRERDLGMPDGEAALAAKVAVLETQLKKALQELQAAQARQADPQPQAWPPPDSPVRVDTVRVVEGPREVEVVASTAAGAPAQRAQSLEPYGTGLRALAMPGRPESPPVFRSQEVVETMCPVPAAATSNVHMVKKISITERSCDGAAGLPEVPAESSSSPPGSEVASLTQPEKSTGRVPTQEPTHREPTRQAASQESEEAGGTGGPPAGVRSIMKRKEEVADPTAHRRSLQFVGVNGGYESSSEDSSTAENISDNDSTENEAPEPRERVPSVAEAPQLRPAGTAAAKTSRQECQLSRESQHIPTAEGASGSNTEEEIRMELSPDLISACLALEKYLDNPNALTERELKVAYTTVLQEWLRLACRSDAHPELVRRHLVTFRAMSARLLDYVVNIADSNGNTALHYSVSHANFPVVQQLLDSGVCKVDKQNRAGYSPIMLTALATLKTQDDIETVLQLFRLGNINAKASQAGQTALMLAVSHGRVDVVKALLACEADVNVQDDDGSTALMCACEHGHKEIAGLLLAVPSCDISLTDRDGSTALMVALDAGQSEIASMLYSRMNIKCSFAPMSDDESPTSSSAEE
			no binding	GFP-tensin3-FLΔH1 (protein, UniProt Q68CZ2) MEEGHGLDLTYITERIIAVSFPAGCSEESYLHNLQEVTRMLKSKHGDNYLVLNLSEKRYDLTKLNPKIMDVGWPELHAPPLDKMCTICKAQESWLNSNLQHVVVIHCRGGKGRIGVVISSYMHFTNVSASADQALDRFAMKKFYDDKVSALMQPSQKRYVQFLSGLLSGSVKMNASPLFLHFVILHGTPNFDTGGVCRPFLKLYQAMQPVYTSGIYNVGPENPSRICIVIEPAQLLKGDVMVKCYHKKYRSATRDVIFRLQFHTGAVQGYGLVFGKEDLDNASKDDRFPDYGKVELVFSATPEKIQGSEHLYNDHGVIVDYNTTDPLIRWDSYENLSADGEVLHTQGPVDGSLYAKVRKKSSSDPGIPGGPQAIPATNSPDHSDHTLSVSSDSGHSTASARTDKTEERLAPGTRRGLSAQEKAELDQLLSGFGLEDPGSSLKEMTDARSKYSGTRHVVPAQVHVNGDAALKDRETDILDDEMPHHDLHSVDSLGTLSSSEGPQSAHLGPFTCHKSSQNSLLSDGFGSNVGEDPQGTLVPDLGLGMDGPYERERTFGSREPKQPQPLLRKPSVSAQMQAYGQSSYSTQTWVRQQQMVVAHQYSFAPDGEARLVSRCPADNPGLVQAQPRVPLTPTRGTSSRVAVQRGVGSGPHPPDTQQPSPSKAFKPRFPGDQVVNGAGPELSTGPSPGPTFEPIPTHMNALGSQANGSVSPDSVGGGLRASSRLPDTGEGPSRATGRQGSSAEQPLGGRLRKLSLGQYDNDAGGQLPFSKCAWGKAGVDYAPNLPPFPSPADVKETMTPGYPQDLDIIDGRILSSKESMCSTPAFPVSPETPYVKTALRHPPFSPPEPPLSSPASQHKGGREPRSCPETLTHAVGMSESPIGPKSTMLRADASSTPSFQQAFASSCTISSNGPGQRRESSSSAERQWVESSPKPMVSLLGSGRPTGSPLSAEFSGTRKDSPVLSCFPPSELQAPFHSHELSLAEPPDSLAPPSSQAFLGFGTAPVGSGLPPEEDLGALLANSHGASPTPSIPLTATGAADNGFLSHNFLTVAPGHSSHHSPGLQGQGVTLPGQPPLPEKKRASEGDRSLGSVSPSSSGFSSPHSGSTISIPFPNVLPDFSKASEAASPLPDSPGDKLVIVKFVQDTSKFWYKADISREQAIAMLKDKEPGSFIVRDSHSFRGAYGLAMKVATPPPSVLQLNKKAGDLANELVRHFLIECTPKGVRLKGCSNEPYFGSLTALVCQHSITPLALPCKLLIPERDPLEEIAESSPQTAANSAAELLKQGAACNVWYLNSVEMESLTGHQAIQKALSITLVQEPPPVSTVVHFKVSAQGITLTDNQRKLFFRRHYPVNSVIFCALDPQDRKWIKDGPSSKVFGFVARKQGSATDNVCHLFAEHDPEQPASAIVNFVSKVMIGSPKKV
